Experimental data published in paper PMC13168378.

Protein sequences, listed by entry. Tags and fused reporters are not part of them.
UniProt P48148: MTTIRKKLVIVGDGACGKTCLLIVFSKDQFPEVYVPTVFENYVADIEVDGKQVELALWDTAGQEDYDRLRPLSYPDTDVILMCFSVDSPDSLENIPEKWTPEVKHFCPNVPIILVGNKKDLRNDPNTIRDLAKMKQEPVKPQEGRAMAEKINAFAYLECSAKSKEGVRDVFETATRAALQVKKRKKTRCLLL
UniProt P46150: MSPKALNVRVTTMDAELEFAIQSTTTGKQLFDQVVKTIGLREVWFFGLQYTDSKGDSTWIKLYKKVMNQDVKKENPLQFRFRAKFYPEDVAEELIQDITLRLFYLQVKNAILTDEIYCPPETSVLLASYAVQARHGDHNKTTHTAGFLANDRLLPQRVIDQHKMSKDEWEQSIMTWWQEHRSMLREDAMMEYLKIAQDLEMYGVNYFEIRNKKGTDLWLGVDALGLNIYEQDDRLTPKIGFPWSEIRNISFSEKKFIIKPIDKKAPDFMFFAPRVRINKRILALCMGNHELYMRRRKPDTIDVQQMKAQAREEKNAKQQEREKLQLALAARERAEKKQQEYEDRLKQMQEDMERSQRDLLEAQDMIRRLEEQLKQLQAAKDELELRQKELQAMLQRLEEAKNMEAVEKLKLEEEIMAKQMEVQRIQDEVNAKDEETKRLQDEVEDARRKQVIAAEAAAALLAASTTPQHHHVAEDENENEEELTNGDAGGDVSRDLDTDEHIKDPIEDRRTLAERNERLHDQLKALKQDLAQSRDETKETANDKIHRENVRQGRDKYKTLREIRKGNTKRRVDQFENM
UniProt Q9W2N0: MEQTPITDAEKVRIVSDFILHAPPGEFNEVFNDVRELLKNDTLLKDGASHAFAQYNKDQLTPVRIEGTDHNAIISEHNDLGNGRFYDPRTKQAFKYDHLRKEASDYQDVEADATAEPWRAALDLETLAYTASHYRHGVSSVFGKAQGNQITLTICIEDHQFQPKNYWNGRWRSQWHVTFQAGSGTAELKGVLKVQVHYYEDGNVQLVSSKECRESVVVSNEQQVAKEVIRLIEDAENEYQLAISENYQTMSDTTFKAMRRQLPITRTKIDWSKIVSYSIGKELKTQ
UniProt Q8MSS1: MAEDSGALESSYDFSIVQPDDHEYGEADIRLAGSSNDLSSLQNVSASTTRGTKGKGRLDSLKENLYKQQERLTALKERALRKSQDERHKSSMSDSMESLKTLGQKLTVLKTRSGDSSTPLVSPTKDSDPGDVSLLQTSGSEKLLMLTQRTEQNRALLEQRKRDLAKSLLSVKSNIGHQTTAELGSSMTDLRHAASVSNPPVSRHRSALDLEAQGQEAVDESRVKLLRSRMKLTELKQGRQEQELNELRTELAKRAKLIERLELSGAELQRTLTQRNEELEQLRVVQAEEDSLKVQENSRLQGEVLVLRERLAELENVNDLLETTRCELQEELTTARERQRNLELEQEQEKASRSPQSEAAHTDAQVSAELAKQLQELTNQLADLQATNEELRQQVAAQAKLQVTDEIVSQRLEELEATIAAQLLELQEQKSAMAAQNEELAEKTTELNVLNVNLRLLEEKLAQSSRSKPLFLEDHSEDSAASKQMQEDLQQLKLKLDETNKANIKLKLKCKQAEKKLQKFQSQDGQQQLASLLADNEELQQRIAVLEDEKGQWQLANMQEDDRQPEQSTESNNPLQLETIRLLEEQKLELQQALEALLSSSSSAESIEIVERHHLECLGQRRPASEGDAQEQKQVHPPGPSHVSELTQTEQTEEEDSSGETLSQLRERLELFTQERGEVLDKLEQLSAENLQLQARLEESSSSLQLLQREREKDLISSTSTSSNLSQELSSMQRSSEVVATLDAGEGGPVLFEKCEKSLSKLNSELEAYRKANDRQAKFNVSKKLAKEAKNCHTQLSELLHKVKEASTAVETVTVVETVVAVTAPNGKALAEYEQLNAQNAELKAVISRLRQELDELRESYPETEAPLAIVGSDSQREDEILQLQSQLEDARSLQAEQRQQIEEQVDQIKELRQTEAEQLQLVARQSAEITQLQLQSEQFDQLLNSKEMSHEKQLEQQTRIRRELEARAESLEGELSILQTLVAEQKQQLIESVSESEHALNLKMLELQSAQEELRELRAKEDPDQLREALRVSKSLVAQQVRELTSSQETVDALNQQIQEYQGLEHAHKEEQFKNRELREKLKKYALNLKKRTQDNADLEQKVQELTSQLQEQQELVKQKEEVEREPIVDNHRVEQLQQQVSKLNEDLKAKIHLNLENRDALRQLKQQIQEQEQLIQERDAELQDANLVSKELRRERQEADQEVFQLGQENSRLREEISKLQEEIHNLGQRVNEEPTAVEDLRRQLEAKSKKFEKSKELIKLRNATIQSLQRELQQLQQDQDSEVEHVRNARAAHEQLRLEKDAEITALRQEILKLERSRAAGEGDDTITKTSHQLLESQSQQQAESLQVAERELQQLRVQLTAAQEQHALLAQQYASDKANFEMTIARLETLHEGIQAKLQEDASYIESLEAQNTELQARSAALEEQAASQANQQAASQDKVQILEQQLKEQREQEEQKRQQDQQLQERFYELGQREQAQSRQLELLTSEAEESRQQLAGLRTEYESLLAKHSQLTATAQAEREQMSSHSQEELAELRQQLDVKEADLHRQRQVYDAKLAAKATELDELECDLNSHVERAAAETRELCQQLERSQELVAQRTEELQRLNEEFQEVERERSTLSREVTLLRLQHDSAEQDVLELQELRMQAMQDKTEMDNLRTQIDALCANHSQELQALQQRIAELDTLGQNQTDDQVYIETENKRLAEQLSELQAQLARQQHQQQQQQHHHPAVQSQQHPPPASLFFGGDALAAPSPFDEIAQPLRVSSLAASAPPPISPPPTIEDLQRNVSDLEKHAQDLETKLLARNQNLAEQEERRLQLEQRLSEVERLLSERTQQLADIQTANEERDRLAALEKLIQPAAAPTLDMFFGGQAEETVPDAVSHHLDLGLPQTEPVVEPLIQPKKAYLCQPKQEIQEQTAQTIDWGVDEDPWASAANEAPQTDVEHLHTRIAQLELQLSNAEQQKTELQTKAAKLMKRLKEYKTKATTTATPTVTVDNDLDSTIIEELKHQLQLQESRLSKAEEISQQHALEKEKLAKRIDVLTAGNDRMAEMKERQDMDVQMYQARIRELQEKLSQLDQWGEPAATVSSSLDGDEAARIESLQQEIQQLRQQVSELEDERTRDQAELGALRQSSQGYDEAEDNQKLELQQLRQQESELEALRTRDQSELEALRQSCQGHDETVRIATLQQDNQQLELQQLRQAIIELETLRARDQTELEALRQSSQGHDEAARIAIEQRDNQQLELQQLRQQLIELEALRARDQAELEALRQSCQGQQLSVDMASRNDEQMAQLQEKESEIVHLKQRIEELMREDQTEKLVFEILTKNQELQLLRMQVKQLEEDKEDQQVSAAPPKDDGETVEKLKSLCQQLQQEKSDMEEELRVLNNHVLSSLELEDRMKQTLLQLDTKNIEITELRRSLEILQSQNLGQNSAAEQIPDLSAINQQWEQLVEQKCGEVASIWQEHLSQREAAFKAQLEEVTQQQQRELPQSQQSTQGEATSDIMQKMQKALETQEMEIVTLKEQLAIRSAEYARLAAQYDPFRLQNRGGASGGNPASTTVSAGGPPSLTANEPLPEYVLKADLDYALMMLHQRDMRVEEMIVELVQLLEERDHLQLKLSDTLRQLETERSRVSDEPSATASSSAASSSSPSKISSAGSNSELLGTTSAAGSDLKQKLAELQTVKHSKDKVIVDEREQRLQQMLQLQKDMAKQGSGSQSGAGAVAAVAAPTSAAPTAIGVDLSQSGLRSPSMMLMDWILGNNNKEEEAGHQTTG
UniProt P32392: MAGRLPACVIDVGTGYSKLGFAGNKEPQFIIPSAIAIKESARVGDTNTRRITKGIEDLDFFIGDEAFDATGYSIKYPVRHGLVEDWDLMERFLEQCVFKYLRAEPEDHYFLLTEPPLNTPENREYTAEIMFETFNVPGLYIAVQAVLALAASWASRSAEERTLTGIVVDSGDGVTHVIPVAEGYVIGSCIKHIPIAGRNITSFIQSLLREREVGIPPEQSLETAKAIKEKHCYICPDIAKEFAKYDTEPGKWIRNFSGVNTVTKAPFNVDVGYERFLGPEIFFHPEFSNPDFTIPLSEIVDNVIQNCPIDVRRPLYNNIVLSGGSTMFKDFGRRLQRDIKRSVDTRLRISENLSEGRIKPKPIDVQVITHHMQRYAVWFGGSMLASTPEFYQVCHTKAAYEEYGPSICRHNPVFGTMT
UniProt Q9V8R9: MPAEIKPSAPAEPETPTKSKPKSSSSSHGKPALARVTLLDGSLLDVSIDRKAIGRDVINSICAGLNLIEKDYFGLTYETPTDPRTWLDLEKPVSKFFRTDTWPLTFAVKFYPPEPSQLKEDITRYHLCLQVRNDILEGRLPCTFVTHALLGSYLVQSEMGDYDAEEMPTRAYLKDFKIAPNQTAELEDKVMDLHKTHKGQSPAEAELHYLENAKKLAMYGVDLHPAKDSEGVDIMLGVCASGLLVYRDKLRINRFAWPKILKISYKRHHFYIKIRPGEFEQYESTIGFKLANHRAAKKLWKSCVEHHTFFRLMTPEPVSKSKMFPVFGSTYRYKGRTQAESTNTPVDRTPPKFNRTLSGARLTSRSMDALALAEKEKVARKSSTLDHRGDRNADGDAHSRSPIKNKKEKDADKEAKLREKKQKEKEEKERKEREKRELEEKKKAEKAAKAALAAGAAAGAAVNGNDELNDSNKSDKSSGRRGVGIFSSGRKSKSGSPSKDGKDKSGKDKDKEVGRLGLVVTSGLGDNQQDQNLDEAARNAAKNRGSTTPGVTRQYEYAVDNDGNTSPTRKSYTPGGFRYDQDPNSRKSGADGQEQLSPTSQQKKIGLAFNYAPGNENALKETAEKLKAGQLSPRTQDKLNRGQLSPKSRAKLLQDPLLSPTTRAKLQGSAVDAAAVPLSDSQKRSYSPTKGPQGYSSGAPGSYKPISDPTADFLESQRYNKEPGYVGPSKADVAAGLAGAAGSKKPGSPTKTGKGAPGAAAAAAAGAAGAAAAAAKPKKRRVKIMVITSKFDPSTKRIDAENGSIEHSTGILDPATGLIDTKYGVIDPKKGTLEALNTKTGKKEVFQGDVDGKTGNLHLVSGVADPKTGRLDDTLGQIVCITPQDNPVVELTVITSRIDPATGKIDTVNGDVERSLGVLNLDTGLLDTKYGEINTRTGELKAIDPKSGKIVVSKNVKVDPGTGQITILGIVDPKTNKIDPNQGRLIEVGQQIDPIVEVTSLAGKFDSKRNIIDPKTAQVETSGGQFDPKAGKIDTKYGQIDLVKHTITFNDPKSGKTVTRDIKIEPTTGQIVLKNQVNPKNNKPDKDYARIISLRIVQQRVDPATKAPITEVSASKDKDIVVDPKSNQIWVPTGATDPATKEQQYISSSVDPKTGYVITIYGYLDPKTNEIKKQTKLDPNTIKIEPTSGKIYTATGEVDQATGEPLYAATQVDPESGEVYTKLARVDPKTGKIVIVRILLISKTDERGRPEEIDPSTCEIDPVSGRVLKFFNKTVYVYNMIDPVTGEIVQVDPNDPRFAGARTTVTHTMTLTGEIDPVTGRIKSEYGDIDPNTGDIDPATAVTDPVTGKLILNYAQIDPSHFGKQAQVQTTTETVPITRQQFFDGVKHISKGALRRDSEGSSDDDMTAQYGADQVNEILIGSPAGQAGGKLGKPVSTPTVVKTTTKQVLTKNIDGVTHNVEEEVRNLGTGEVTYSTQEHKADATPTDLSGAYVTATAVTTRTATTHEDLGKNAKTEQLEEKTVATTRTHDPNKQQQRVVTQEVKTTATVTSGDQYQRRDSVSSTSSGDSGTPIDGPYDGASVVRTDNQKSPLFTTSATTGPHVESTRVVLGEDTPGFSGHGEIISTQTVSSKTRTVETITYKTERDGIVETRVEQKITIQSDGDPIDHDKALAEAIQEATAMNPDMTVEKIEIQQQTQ
UniProt P06754: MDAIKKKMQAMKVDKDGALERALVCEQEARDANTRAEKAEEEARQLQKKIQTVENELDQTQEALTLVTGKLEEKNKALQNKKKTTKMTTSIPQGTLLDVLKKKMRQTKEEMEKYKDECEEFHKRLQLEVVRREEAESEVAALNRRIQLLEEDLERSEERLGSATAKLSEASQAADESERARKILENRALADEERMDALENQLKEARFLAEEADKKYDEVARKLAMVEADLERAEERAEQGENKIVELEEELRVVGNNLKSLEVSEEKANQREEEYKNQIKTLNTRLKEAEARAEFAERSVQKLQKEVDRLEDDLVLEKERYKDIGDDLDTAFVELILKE

Molecular target: Rho1 GTPase (Drosophila melanogaster (endogenous in third instar larvae)) (UniProt P48148)
Experiment: affinity purification with mass spectrometry; anti-Rho1 antibody on Protein G Plus-agarose beads; larval Malpighian tubule lysates (RIPA buffer) of Oregon R+ and of Drice mutants, 2 h at 4 °C; bound proteins by mass spectrometry

binding	Molecule
binds	moesin (from UniProt P46150 1-578)
binds	cpa (from UniProt Q9W2N0 1-286)
binds	lva (from UniProt Q8MSS1 1-2779)
binds	Arp3 (from UniProt P32392 1-418)
binds	cora (from UniProt Q9V8R9 1-1698)
binds	tropomyosin-I (from UniProt P06754 1-339)
binds	cpb (protein, UniProt P48603 1-276) MSEMQMDCALDLMRRLPPQQIEKNLIDLIDLAPDLCEDLLSSVDQPLKIAKDKEHGKDYLLCDYNRDGDSYRSPWSNSYYPPLEDGQMPSERLRKLEIEANYAFDQYREMYYEGGVSSVYLWDLDHGFAAVILIKKAGDGSKMIRGCWDSIHVVEVQEKTTGRTAHYKLTSTAMLWLQTNKQGSGTMNLGGSLTRQQEQDANVSESSPHIANIGKMVEEMENKIRNTLNEIYFGKTKDIVNGLRSTQSLADQRQQAAMKQDLAAAILRRNVKPESN
binds	flare (protein, UniProt Q9VU68 1-608) MAQPQPPAYENKNIYATLPRTQRGQPIVLGADPKGKNFLYTNGNSVIIRNIENPAIADVYTEHSCAVNVAKYSPSGFYIASGDASGKIRIWDTVNKEHLLKNEFQPIAGPIKDISWSPDNQRIVAVGEGRERFGHVFMSETGTSVGEISGQSKSINSADFRPARPFRIVTGSEDNTIAVFEGPPFKFKMTKQDHSRFVQAVRYSPDGKFFASAGFDGKVFLYDGTSSELVGEFGSPAHKGGVYALAWKPDSTQLLTCSGDKTCRLWTVESRELVSEFVMGTTVDDQQVSCLWQGDNLITVSLSGVITYLNVADPSKPLRVVKGHNKPITVLGLSDDRSTIYTGSHDGVVTNWNSGSGTNDRITGTGHGNQINGIAAWGDFVYTCGIDDSLRQFSVEGNSYTDYVVKLNCQPRGLAILRNENIIALACIKELTLVQDQKKIFSLPIKYEASSIAVNADTSDVAVGGDDQKLHIYTLKGGVLEPKVELDHLGAVTDVSYSPDLKYLVACDAHRKVVLYSVEEYKPAHNKEWGFHSARVNTVAWSPNSLLVASGSLDTTIIIWSVANPAKHTIIKNAHPQSQITRLVWLDNNTVISTGQDCNTKVWHVENI

These are yes or no findings as the source states them, for the method shown. Binding seen in cells or lysates may run through a third protein. These calls come from enrichment with a bait or labelling near it, and not all partners need be listed.
